Results deposited as PubChem BioAssay AID1159598 (NIAID, 2016).

Purpose: 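Canonical TLR pathway genes needed for TNF promoter response to flagellin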
System: human THP-1 B5 reporter cells made macrophage-like with PMA
Reagents: single siRNA against human genes
Duration: reporter read 48 to 72 hours after siRNA transfection
Conditions: flagellin stimulation for 4 hours, dose not given
Read-out: 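TNF promoter firefly luciferase over renilla after 4 h flagellin, plate median/MAD scaled, robust z versus negative controls, mean of replicates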
Reading the numbers: TNF reporter z-score: higher = stronger TNF promoter activity than controls
Call rule: 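Active means the mean reporter z is about 1.5 or more, or about -1.5 or less; values closer to zero are inactive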
Meaning of the calls: active = reporter shifted beyond 1.5 z, up or down; inactive = reporter within 1.5 z of controls
Here is a random part of 756 deposited reagents. 142 of them (19%) were called active. 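Active includes both higher and lower reporter signal; each gene has six separate siRNAs, and no gene-level summary is deposited.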 The numbers tell different reagents against one gene apart. No sequences are given here. The record does not give: the amount of reagent.

| TNF reporter z-score | Outcome | gene | siRNA no. |
| --- | --- | --- | --- |
| 2.23 | active | CREBBP (CREB binding lysine acetyltransferase) | 1 |
| 0.057 | inactive | CREBBP (CREB binding lysine acetyltransferase) | 2 |
| 0.13 | inactive | CREBBP (CREB binding lysine acetyltransferase) | 3 |
| 0.238 | inactive | CREBBP (CREB binding lysine acetyltransferase) | 4 |
| 0.027 | inactive | CREBBP (CREB binding lysine acetyltransferase) | 5 |
| -0.694 | inactive | CREBBP (CREB binding lysine acetyltransferase) | 6 |
| -0.6 | inactive | DAB2IP (DAB2 interacting protein) | 1 |
| -0.239 | inactive | DAB2IP (DAB2 interacting protein) | 2 |
| 1.32 | inactive | DAB2IP (DAB2 interacting protein) | 3 |
| -1.23 | inactive | DAB2IP (DAB2 interacting protein) | 4 |
| -0.814 | inactive | DAB2IP (DAB2 interacting protein) | 5 |
| -0.51 | inactive | DAB2IP (DAB2 interacting protein) | 6 |
| -0.691 | inactive | IRAK3 (interleukin 1 receptor associated kinase 3) | 1 |
| -0.623 | inactive | IRAK3 (interleukin 1 receptor associated kinase 3) | 2 |
| -0.273 | inactive | IRAK3 (interleukin 1 receptor associated kinase 3) | 3 |
| 0.2 | inactive | IRAK3 (interleukin 1 receptor associated kinase 3) | 4 |
| -0.71 | inactive | IRAK3 (interleukin 1 receptor associated kinase 3) | 5 |
| 0.103 | inactive | IRAK3 (interleukin 1 receptor associated kinase 3) | 6 |
| -0.525 | inactive | OTUD5 (OTU deubiquitinase 5) | 1 |
| -0.289 | inactive | OTUD5 (OTU deubiquitinase 5) | 2 |
| -1.37 | inactive | OTUD5 (OTU deubiquitinase 5) | 3 |
| -0.567 | inactive | OTUD5 (OTU deubiquitinase 5) | 4 |
| -1.63 | active | OTUD5 (OTU deubiquitinase 5) | 5 |
| -0.817 | inactive | OTUD5 (OTU deubiquitinase 5) | 6 |
| 0.649 | inactive | TLR2 (toll like receptor 2) | 1 |
| -0.51 | inactive | TLR2 (toll like receptor 2) | 2 |
| -1.66 | active | TLR2 (toll like receptor 2) | 3 |
| 1.56 | active | TLR2 (toll like receptor 2) | 4 |
| -0.516 | inactive | TLR2 (toll like receptor 2) | 5 |
| 0.17 | inactive | TLR2 (toll like receptor 2) | 6 |
| -1.53 | active | IKBKG | 1 |
| -1.08 | inactive | IKBKG | 2 |
| -0.631 | inactive | IKBKG | 3 |
| -1.44 | inactive | IKBKG | 4 |
| 0.575 | inactive | IKBKG | 5 |
| -1.03 | inactive | IKBKG | 6 |
| -0.969 | inactive | NFKBIB (NFKB inhibitor beta) | 1 |
| 0.357 | inactive | NFKBIB (NFKB inhibitor beta) | 2 |
| -0.812 | inactive | NFKBIB (NFKB inhibitor beta) | 3 |
| -1.11 | inactive | NFKBIB (NFKB inhibitor beta) | 4 |
| -0.152 | inactive | NFKBIB (NFKB inhibitor beta) | 5 |
| -0.477 | inactive | NFKBIB (NFKB inhibitor beta) | 6 |
| -1.83 | active | PIK3CB | 1 |
| -0.785 | inactive | PIK3CB | 2 |
| -0.861 | inactive | PIK3CB | 3 |
| 0.107 | inactive | PIK3CB | 4 |
| 0.707 | inactive | PIK3CB | 5 |
| 0.393 | inactive | PIK3CB | 6 |
| -0.547 | inactive | TLR7 (toll like receptor 7) | 1 |
| 0.885 | inactive | TLR7 (toll like receptor 7) | 2 |
| -0.294 | inactive | TLR7 (toll like receptor 7) | 3 |
| -0.438 | inactive | TLR7 (toll like receptor 7) | 4 |
| 0.0477 | inactive | TLR7 (toll like receptor 7) | 5 |
| -0.247 | inactive | TLR7 (toll like receptor 7) | 6 |
| 0.439 | inactive | IRF9 (interferon regulatory factor 9) | 1 |
| 0.195 | inactive | IRF9 (interferon regulatory factor 9) | 2 |
| -0.993 | inactive | IRF9 (interferon regulatory factor 9) | 3 |
| -2 | active | IRF9 (interferon regulatory factor 9) | 4 |
| -0.712 | inactive | IRF9 (interferon regulatory factor 9) | 5 |
| -0.858 | inactive | IRF9 (interferon regulatory factor 9) | 6 |

Records above whose gene name begins with P or p (6):
| TNF reporter z-score | Outcome | gene | siRNA no. |
| --- | --- | --- | --- |
| -1.83 | active | PIK3CB | 1 |
| -0.785 | inactive | PIK3CB | 2 |
| -0.861 | inactive | PIK3CB | 3 |
| 0.107 | inactive | PIK3CB | 4 |
| 0.707 | inactive | PIK3CB | 5 |
| 0.393 | inactive | PIK3CB | 6 |
